The other results are listed elsewhere or left out.
compound: CC1=C2C(=CC=C1)N=C(N(C2=O)C3=CC=CC=C3C)CN4C=NC5=C(N=CN=C54)N; assay: log2 fold change, soluble protein after heating vs DMSO (PISA); higher = thermal stabilisation; K562 cells, 10 uM, 30 min; active = over 0.2 and 3.5 SD of the protein, either way, in both replicates (recomputed)
Method in brief: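 Soluble protein was quantified by TMTpro 16plex LC-MS/MS after channel sums were equalised. It was obtained as the supernatant after 21,000xg for 90 min from pooled aliquots of K562 cells (2×10^6 cells/mL, 10 μM compound, 30 min) heated for 3 min across 48°C-58°C and extracted in PBS with 0.5% NP-40 at 4°C. Thermal stability values are relative to control samples and come from duplicates. They are given as log2 fold changes.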

By UniProt entry, the sequences of proteins in these tests, tags left out. Where a name states a change or a piece, a line headed by the entry shows the natural chain unless it says otherwise.
UniProt Q6GQQ9: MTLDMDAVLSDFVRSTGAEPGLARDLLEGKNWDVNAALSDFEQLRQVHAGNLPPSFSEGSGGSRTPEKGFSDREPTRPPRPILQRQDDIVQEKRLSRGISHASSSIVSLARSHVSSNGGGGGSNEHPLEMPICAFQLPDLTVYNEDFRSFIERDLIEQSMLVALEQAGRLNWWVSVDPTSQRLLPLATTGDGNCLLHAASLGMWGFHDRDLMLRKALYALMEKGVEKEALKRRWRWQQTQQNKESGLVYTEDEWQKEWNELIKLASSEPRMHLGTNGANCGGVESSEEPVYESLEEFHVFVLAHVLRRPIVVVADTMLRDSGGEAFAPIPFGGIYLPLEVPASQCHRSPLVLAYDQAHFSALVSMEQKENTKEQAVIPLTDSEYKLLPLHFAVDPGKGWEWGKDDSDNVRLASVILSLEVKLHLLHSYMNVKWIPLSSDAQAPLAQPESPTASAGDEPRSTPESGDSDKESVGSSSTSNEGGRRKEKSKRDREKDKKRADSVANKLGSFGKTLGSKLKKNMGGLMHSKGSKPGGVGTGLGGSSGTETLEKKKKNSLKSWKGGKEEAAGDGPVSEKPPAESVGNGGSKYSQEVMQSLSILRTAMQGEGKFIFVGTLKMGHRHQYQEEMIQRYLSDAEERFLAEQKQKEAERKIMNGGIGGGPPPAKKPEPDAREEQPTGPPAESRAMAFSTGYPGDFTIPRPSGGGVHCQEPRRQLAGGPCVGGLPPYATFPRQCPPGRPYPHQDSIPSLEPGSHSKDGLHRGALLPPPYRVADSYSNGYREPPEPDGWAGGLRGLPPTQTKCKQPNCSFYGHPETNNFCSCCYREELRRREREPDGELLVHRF
UniProt Q96CV9, whole entry, looked up: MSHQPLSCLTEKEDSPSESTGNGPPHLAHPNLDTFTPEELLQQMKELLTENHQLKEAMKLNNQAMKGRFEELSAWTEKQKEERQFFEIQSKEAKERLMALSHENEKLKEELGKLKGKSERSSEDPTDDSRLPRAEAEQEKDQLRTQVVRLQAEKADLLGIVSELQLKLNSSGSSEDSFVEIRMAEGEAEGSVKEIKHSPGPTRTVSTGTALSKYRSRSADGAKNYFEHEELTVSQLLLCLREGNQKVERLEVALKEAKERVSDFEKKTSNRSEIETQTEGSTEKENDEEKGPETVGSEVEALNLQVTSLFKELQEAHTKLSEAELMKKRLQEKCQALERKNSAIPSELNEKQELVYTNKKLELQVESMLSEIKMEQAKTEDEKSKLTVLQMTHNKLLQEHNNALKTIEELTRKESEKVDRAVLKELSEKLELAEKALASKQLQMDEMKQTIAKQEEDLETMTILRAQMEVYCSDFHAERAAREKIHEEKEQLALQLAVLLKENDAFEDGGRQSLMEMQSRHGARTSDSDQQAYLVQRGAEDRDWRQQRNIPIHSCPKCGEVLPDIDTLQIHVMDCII
UniProt P80303: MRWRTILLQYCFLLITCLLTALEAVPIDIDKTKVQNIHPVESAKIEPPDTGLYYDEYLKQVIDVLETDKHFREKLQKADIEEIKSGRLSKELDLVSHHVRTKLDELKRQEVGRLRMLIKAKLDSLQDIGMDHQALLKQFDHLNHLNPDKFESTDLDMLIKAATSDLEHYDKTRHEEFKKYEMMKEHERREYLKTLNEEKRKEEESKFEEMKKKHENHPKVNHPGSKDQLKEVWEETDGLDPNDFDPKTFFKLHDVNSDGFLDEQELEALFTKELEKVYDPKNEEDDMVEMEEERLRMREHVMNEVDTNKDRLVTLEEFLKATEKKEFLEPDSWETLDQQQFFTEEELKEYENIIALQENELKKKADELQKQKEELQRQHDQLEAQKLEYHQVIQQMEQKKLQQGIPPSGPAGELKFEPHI
UniProt O95989: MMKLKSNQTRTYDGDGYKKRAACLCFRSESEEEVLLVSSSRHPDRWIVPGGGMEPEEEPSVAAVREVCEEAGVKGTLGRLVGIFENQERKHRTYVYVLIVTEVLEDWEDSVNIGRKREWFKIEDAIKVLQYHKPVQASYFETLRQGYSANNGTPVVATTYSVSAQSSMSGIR
UniProt Q8IVD9: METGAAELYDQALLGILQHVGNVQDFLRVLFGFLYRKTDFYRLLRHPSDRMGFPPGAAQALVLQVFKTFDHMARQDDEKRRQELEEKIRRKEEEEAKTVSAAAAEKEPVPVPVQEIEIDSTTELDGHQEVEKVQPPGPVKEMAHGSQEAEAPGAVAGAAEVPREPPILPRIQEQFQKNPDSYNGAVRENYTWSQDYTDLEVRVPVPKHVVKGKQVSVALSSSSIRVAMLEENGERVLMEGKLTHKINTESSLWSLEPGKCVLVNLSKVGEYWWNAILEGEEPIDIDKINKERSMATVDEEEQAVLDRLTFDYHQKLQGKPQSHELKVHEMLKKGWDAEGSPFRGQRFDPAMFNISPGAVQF
UniProt Q12769: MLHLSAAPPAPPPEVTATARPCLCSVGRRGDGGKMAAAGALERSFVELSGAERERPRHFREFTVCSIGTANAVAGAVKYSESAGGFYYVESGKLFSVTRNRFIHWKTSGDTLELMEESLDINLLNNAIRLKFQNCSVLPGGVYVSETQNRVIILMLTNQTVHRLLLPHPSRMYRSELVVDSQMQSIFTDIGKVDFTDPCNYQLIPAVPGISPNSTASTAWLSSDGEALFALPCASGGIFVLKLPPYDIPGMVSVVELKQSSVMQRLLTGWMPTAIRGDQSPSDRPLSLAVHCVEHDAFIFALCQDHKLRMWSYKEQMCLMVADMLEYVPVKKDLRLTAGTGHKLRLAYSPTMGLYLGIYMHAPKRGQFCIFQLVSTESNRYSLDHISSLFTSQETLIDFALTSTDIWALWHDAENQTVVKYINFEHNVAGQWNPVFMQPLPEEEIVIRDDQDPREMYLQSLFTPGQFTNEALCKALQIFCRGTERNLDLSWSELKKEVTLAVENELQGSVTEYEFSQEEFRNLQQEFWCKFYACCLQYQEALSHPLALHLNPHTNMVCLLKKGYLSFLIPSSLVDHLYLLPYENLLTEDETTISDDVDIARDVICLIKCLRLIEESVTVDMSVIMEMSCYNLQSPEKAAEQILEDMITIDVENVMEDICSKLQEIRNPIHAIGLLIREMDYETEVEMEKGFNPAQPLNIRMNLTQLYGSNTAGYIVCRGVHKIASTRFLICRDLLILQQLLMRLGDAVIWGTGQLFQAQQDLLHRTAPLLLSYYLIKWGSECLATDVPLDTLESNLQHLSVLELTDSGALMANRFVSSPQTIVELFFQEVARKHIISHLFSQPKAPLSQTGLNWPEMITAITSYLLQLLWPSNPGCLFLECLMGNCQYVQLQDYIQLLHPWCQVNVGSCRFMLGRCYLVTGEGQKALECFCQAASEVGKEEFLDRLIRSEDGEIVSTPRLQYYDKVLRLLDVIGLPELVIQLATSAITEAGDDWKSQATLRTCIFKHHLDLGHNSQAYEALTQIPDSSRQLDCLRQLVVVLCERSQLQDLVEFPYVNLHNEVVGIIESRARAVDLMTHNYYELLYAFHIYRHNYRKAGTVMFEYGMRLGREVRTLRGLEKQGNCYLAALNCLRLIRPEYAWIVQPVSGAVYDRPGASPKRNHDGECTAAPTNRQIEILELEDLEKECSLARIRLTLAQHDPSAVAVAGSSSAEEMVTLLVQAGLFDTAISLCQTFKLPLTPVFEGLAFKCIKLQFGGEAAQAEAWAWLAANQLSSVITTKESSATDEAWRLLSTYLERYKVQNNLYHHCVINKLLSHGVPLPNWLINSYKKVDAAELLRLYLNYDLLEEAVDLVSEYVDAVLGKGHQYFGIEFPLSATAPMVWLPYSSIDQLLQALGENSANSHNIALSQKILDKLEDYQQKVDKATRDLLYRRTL
UniProt Q96MF7: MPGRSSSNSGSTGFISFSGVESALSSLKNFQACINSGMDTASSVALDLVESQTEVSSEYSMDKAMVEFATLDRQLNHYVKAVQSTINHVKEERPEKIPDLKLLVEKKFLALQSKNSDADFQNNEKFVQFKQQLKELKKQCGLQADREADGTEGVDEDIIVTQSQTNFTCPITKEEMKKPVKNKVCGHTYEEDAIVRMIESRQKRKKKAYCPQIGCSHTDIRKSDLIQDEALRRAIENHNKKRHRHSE
UniProt O43482, whole entry, looked up: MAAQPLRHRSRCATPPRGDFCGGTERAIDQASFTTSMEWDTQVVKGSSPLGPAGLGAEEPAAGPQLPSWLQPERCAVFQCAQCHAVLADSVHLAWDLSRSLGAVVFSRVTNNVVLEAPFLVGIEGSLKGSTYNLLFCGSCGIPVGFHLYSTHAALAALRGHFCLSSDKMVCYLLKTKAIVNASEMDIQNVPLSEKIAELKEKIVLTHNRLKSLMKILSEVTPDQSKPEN
UniProt Q9Y530: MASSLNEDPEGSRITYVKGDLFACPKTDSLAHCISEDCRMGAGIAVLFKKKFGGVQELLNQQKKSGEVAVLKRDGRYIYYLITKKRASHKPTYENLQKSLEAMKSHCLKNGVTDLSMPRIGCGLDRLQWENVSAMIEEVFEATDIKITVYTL
UniProt P0C025: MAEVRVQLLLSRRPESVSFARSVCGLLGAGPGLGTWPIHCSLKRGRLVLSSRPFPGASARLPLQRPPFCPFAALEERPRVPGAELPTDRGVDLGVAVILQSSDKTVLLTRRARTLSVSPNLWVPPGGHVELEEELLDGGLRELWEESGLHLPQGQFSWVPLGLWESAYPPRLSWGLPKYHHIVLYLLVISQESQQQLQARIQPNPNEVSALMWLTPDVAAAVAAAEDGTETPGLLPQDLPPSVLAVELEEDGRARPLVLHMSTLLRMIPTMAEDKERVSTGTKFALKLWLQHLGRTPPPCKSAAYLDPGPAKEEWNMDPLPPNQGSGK
UniProt Q5SRE5: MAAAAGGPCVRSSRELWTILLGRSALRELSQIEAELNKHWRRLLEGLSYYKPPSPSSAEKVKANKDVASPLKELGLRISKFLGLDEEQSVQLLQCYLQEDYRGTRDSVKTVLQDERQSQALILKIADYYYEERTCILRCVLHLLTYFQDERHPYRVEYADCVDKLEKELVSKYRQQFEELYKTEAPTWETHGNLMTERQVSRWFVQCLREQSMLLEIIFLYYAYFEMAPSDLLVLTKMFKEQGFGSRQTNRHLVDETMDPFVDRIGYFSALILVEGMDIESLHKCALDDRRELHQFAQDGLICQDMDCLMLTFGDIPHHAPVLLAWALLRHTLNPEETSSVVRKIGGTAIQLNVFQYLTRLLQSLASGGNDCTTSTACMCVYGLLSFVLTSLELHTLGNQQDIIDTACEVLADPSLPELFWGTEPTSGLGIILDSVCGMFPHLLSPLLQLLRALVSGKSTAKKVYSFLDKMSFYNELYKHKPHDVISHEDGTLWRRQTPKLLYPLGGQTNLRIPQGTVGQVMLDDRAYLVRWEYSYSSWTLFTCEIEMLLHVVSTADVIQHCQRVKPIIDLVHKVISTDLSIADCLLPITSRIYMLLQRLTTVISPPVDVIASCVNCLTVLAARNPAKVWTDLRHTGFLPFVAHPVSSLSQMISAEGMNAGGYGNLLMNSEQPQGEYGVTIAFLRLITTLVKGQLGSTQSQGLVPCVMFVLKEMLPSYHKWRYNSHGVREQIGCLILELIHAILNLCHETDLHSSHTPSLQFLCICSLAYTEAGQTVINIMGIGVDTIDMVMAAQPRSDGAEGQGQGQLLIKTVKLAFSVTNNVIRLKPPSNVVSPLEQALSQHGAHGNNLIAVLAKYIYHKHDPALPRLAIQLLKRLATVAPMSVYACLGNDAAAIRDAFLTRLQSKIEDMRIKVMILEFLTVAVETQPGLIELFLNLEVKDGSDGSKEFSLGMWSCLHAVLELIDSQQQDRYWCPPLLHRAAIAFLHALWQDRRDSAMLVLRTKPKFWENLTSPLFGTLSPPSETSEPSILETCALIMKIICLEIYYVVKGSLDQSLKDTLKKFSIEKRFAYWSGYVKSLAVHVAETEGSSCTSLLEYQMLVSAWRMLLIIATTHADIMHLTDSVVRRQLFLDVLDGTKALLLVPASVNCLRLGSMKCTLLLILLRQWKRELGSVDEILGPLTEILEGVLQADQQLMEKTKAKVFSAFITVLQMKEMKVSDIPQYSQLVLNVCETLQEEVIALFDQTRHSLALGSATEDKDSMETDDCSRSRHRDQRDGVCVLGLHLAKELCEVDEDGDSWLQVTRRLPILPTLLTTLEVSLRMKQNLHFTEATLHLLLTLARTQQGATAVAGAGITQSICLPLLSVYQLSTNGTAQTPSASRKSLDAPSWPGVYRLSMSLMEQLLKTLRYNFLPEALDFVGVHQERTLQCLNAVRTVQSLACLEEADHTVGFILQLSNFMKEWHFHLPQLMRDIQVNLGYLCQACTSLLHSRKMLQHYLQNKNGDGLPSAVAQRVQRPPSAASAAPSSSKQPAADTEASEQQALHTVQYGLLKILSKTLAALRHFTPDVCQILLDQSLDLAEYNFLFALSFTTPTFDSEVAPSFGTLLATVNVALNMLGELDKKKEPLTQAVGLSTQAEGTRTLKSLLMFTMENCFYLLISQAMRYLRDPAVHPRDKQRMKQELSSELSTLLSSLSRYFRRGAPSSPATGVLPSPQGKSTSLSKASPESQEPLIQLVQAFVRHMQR

| Target | log2 fold change |
| --- | --- |
| OTUD7B (UniProt Q6GQQ9) | inactive: 0.165 |
| OSBPL9 (UniProt Q96SU4) | inactive: -0.042 |
| OPTN (UniProt Q96CV9) | inactive: 0.061 |
| NT5DC1 (UniProt Q5TFE4) | inactive: 0.006 |
| OCRL (UniProt Q01968) | inactive: 0.025 |
| OPA1 isoform 2 (UniProt O60313) | inactive: 0.021 |
| NTMT1 (UniProt Q9BV86) | inactive: 0.079 |
| NUCB2 (UniProt P80303) | inactive: 0.023 |
| NUDT3 (UniProt O95989) | inactive: 0.037 |
| NUMA1 (UniProt Q14980) | inactive: -0.009 |
| NSUN5 isoform 2 (UniProt Q96P11) | inactive: -0.115 |
| NUDCD3 (UniProt Q8IVD9) | inactive: 0.083 |
| NUP160 (UniProt Q12769) | inactive: 0.038 |
| NSMCE2 (UniProt Q96MF7) | inactive: 0.075 |
| PAAF1 (UniProt Q9BRP4) | inactive: 0.076 |
| OGFOD1 (UniProt Q8N543) | inactive: 0.041 |
| OTUB1 (UniProt Q96FW1) | inactive: 0.007 |

| Target | log2 fold change |
| --- | --- |
| OSTM1 (UniProt Q86WC4) | inactive: 0.058 |
| OGN (UniProt P20774) | inactive: 0.075 |
| NUP93 (UniProt Q8N1F7) | inactive: 0.053 |
| OIP5 (UniProt O43482) | inactive: 0.088 |
| OARD1 (UniProt Q9Y530) | inactive: 0.104 |
| OTUD6B (UniProt Q8N6M0) | inactive: 0.11 |
| NUP214 isoform 5 (UniProt P35658) | inactive: 0.022 |
| NUP205 (UniProt Q92621) | inactive: 0.08 |
| OSTF1 (UniProt Q92882) | inactive: 0.056 |
| OSGEP (UniProt Q9NPF4) | inactive: 0.045 |
| NUTF2 (UniProt P61970) | inactive: 0 |
| NUP62 (UniProt P37198) | inactive: 0.14 |
| NUDT17 (UniProt P0C025) | inactive: -0.066 |
| OSBPL8 (UniProt Q9BZF1) | inactive: 0.007 |
| NUP188 (UniProt Q5SRE5) | inactive: 0.061 |
| P4HA1 (UniProt P13674) | inactive: -0.037 |

Pulled one by one from the entries so far, 2 records:

| Target | log2 fold change |
| --- | --- |
| OARD1 (UniProt Q9Y530) | inactive: 0.104 |
| NUTF2 (UniProt P61970) | inactive: 0 |
